# Reference: PubChem BioAssay AID493246 (Drosophila RNAi Screening Center, 2011)
# Aim: 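Genome-wide search for dsRNAs that reduce cell number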 (primary screen)
# Cells: Drosophila Kc and S2R+ cells
# Reagents: long dsRNA against Drosophila genes
# Detection: 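Cell number per well after knock-down, printed as raw plate values; calls were based on per-plate z-scores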
# Scale: Kc cell number and S2R+ cell number: higher = more cells remaining
# Active means: 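Counted as a hit if cell number falls by a z-score of at least 3 within its plate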
# In all, the deposit lists about 21,000 reagents; shown is a random part of those with a known target gene and a result. Over the whole deposit, 429 (2%) are marked active. 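Values are raw and not normalised between plates; calls rest on per-plate z-scores that were not deposited.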 The numbers tell different reagents against one gene apart. A plus sign joins genes that one reagent is predicted to hit. Reagent sequences are not shown. Not given: the amount of reagent, the time to read-out.
target gene,reagent,"Kc cell number, rep 1","Kc cell number, rep 2","S2R+ cell number, rep 1","S2R+ cell number, rep 2",call
eIF4G2,1,1.56e6,1.54e6,1.29e6,1.60e6,inactive
Sem1,1,1.37e6,1.35e6,7.71e5,9.42e5,inactive
InR,1,1.54e6,1.49e6,1.12e6,1.17e6,inactive
PGRP-LA,1,1.62e6,1.66e6,1.17e6,1.36e6,inactive
PGRP-LA,2,1.64e6,1.65e6,1.12e6,1.35e6,inactive
CG18327,1,1.73e6,1.70e6,1.33e6,1.40e6,inactive
CG11550,1,1.55e6,1.48e6,1.00e6,1.13e6,inactive
obst-J,1,1.43e6,1.43e6,1.37e6,1.44e6,inactive
Ac76E,1,1.44e6,1.52e6,1.15e6,1.30e6,inactive
Ac76E,2,1.54e6,1.57e6,1.22e6,1.26e6,inactive
Rdh,1,6.99e5,6.75e5,5.53e5,6.27e5,active
Rdh,2,2.94e5,3.13e5,5.67e5,7.05e5,active
CG31816,1,1.44e6,1.47e6,9.37e5,1.12e6,inactive

Entries above with an active call (2):
target gene,reagent,"Kc cell number, rep 1","Kc cell number, rep 2","S2R+ cell number, rep 1","S2R+ cell number, rep 2",call
Rdh,1,6.99e5,6.75e5,5.53e5,6.27e5,active
Rdh,2,2.94e5,3.13e5,5.67e5,7.05e5,active

The results go on.
target gene,reagent,"Kc cell number, rep 1","Kc cell number, rep 2","S2R+ cell number, rep 1","S2R+ cell number, rep 2",call
CG5160,1,1.65e6,1.42e6,1.20e6,1.36e6,inactive
CG14744,1,1.66e6,1.64e6,1.31e6,1.51e6,inactive
blo,1,1.35e6,1.43e6,1.04e6,1.04e6,inactive
H,1,1.21e6,1.19e6,1.09e6,1.17e6,inactive
sra,1,1.60e6,1.70e6,1.34e6,1.36e6,inactive
toe,1,1.56e6,1.64e6,1.21e6,1.37e6,inactive
toe,2,1.81e6,1.74e6,1.22e6,1.27e6,inactive
CG31460,1,1.45e6,1.53e6,1.31e6,1.36e6,inactive
CG34427,1,1.30e6,1.31e6,1.15e6,1.14e6,inactive
CG9451,1,1.39e6,1.48e6,1.28e6,1.36e6,inactive
RpS3A,1,8.83e5,9.05e5,6.76e5,7.82e5,active
CG13215,1,1.78e6,1.79e6,1.45e6,1.60e6,inactive
CG16953,1,1.58e6,1.60e6,1.35e6,1.38e6,inactive
Cap-D3 + tomb,1,1.55e6,1.42e6,1.20e6,1.38e6,inactive
Fitm,1,1.44e6,1.47e6,1.06e6,9.75e5,inactive
CG30431,1,1.36e6,1.40e6,1.10e6,1.17e6,inactive
CG30431,2,1.84e6,1.93e6,1.35e6,1.31e6,inactive
CG18302,1,1.63e6,1.67e6,1.29e6,1.56e6,inactive
CG42650,1,1.28e6,1.48e6,1.12e6,1.18e6,inactive
CG31077,1,1.59e6,1.68e6,9.06e5,9.14e5,inactive
cmet,1,1.53e6,1.57e6,1.31e6,1.41e6,inactive
TBPH,1,1.26e6,1.32e6,1.09e6,1.09e6,inactive
BomBc1,1,1.51e6,1.57e6,1.16e6,1.24e6,inactive
lolal,1,1.42e6,1.48e6,1.08e6,1.08e6,inactive
Cad89D,1,1.35e6,1.41e6,1.13e6,1.28e6,inactive
Taf12,1,1.67e6,1.73e6,1.18e6,1.25e6,inactive
CG12502,1,1.62e6,1.26e6,9.56e5,1.20e6,inactive
